No constants are given. Whether binding was seen depends on the method and setting. In cells and extracts the contact can be indirect. A result given as binding can be weak or reduced; the word gives no strength.
Molecular target: Tau (endogenous, total Tau detected with DA9) (mouse (endogenous in N2a)) (UniProt P10637)
Test: proximity ligation

Amino acid sequences for entries named in this document (tags omitted). A change or cut given only in a name is not applied to a line headed by its entry.
UniProt P10637: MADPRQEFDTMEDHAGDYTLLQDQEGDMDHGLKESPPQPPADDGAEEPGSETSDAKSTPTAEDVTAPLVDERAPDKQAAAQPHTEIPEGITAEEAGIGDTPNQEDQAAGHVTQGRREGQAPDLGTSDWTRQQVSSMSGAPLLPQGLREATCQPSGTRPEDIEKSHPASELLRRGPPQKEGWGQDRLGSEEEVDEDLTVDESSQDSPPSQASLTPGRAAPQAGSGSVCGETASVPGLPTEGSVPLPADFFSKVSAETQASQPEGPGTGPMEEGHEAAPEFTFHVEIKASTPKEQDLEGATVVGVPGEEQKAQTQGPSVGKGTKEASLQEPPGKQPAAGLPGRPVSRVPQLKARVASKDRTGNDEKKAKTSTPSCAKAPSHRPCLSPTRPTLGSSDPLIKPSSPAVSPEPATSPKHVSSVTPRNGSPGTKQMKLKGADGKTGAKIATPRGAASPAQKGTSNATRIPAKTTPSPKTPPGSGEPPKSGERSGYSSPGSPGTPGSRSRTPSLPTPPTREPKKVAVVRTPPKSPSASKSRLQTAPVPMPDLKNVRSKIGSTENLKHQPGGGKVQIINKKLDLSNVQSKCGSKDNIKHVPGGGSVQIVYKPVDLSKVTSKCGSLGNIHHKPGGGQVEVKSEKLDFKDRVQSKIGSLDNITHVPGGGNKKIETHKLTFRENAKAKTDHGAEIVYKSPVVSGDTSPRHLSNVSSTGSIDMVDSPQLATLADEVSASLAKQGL
UniProt O14964: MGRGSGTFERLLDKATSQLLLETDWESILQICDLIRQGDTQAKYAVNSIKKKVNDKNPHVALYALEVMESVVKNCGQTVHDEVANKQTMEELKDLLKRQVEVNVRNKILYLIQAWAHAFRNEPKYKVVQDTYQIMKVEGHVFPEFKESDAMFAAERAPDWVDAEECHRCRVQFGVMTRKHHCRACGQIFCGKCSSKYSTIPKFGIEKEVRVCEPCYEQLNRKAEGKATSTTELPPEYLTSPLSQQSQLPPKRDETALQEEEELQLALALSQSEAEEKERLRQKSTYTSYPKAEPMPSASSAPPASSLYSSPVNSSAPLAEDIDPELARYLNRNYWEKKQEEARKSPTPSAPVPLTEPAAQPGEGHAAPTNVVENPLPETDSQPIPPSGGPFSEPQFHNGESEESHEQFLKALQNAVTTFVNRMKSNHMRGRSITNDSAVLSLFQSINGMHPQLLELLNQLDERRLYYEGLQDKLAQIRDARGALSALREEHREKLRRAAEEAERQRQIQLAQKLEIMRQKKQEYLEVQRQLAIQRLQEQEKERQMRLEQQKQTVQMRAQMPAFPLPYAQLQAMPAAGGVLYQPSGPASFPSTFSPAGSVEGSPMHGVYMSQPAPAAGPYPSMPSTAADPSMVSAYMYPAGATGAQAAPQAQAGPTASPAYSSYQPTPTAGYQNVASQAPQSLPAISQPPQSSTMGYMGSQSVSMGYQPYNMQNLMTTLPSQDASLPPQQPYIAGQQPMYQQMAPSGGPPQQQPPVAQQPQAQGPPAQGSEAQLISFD

Question: “mCh-tagged Hrs (from UniProt O14964 1-777)” was tested. Which binding did it give?
Answer: binds

Question: With FLAG-Hrs (from UniProt O14964 1-777) as the substance, how does the binding read?
Answer: binds
